Values from PubChem BioAssay AID602196 (INSERM, 2012)

- Purpose: 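Genes whose knock-down alters cisplatin killing of lung cancer cells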
- Cell system: human A549 lung cancer cells
- Reagents: siRNA pair against human genes
- Timing: 48 h transfection before cisplatin; time from cisplatin to read-out not stated
- Treatment: cisplatin at a dose killing half of control-siRNA cells; exact dose and duration not given
- Measurement: 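Cisplatin cell death as a shift from the 50% death seen with control siRNA; siRNAs toxic or growth-blocking alone scored 0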
- Direction: two-siRNA summed score (-2 to +2): higher = both siRNAs protect from cisplatin killing; -2 means both sensitise; mean protection from cisplatin (shift in death): higher = protection from cisplatin killing
- Call rule: 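Each siRNA scores 0 if harmful alone by LDH or WST-1, otherwise +1 if it reduces and -1 if it increases cisplatin killing; a gene is active when both siRNAs agree (sum +2 or -2)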
- Meaning of the calls: active = both siRNAs shift cisplatin killing the same way; inactive = no consistent shift, or siRNA harmful alone
Here is a random part of about 23,000 reagents tested. Of all reagents, 455 (2%) are marked active. 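Active includes both protection and sensitisation; some change values fall well beyond the stated -50 to +50 range.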 Not all columns of the deposit are shown. The record does not give: the amount of reagent.

Knock-down of ENKD1 came out at: two-siRNA summed score (-2 to +2) = 0; mean protection from cisplatin (shift in death) (%) = 13.7; inactive.
Against LOC388554, the entry reads two-siRNA summed score (-2 to +2) = 0; mean protection from cisplatin (shift in death) (%) = 1.7; inactive.
For PRAMEF8, the entry reads two-siRNA summed score (-2 to +2) = 0; mean protection from cisplatin (shift in death) (%) = -11.2; inactive.
ADGRF2P showed two-siRNA summed score (-2 to +2) = 0; mean protection from cisplatin (shift in death) (%) = -9.6; inactive.
MARF1 scored two-siRNA summed score (-2 to +2) = 0; mean protection from cisplatin (shift in death) (%) = 16.3; inactive.
FAM217A scored two-siRNA summed score (-2 to +2) = 0; mean protection from cisplatin (shift in death) (%) = 1.7; inactive.
Knock-down of NPY gave: two-siRNA summed score (-2 to +2) = 0; mean protection from cisplatin (shift in death) (%) = -1.4; inactive.
Against RHOBTB1, the values are two-siRNA summed score (-2 to +2) = 0; mean protection from cisplatin (shift in death) (%) = 10.6; inactive.
ZNF695 scored two-siRNA summed score (-2 to +2) = 1; mean protection from cisplatin (shift in death) (%) = 4; inactive.
Silencing of TBC1D25 resulted in: two-siRNA summed score (-2 to +2) = 0; mean protection from cisplatin (shift in death) (%) = 11.3; inactive.
Against LOC343839 the deposit lists two-siRNA summed score (-2 to +2) = 0; mean protection from cisplatin (shift in death) (%) = 18.5; inactive.
Knock-down of ARIH2 came out at: two-siRNA summed score (-2 to +2) = -1; mean protection from cisplatin (shift in death) (%) = -35.4; inactive.
With knock-down of MALL, the record shows two-siRNA summed score (-2 to +2) = 1; mean protection from cisplatin (shift in death) (%) = 7.6; inactive.
Against CRYZ, the entry reads two-siRNA summed score (-2 to +2) = 0; mean protection from cisplatin (shift in death) (%) = -1.8; inactive.
LOC139431 scored two-siRNA summed score (-2 to +2) = -1; mean protection from cisplatin (shift in death) (%) = -2; inactive.
After knock-down of WDR97, the screen gave two-siRNA summed score (-2 to +2) = 1; mean protection from cisplatin (shift in death) (%) = 9.8; inactive.
Against NIFK, the entry reads two-siRNA summed score (-2 to +2) = 0; mean protection from cisplatin (shift in death) (%) = -2.8; inactive.
After knock-down of SPMIP6, the record shows two-siRNA summed score (-2 to +2) = 0; mean protection from cisplatin (shift in death) (%) = -5.9; inactive.
LOC391705 gave two-siRNA summed score (-2 to +2) = 0; mean protection from cisplatin (shift in death) (%) = 6.4; inactive.
For TYW2, the entry reads two-siRNA summed score (-2 to +2) = 0; mean protection from cisplatin (shift in death) (%) = 2.6; inactive.
Depletion of AHCTF1 came out at: two-siRNA summed score (-2 to +2) = 0; mean protection from cisplatin (shift in death) (%) = -6.6; inactive.
Silencing of FREM2 came out at: two-siRNA summed score (-2 to +2) = 2; mean protection from cisplatin (shift in death) (%) = 23.4; active.
Knock-down of KANK2 resulted in: two-siRNA summed score (-2 to +2) = 0; mean protection from cisplatin (shift in death) (%) = -2.3; inactive.
After knock-down of OR1C1, the screen gave two-siRNA summed score (-2 to +2) = 0; mean protection from cisplatin (shift in death) (%) = -4.1; inactive.
After knock-down of SAP18, the record shows two-siRNA summed score (-2 to +2) = -1; mean protection from cisplatin (shift in death) (%) = -2.8; inactive.
Against EPC2 the deposit lists two-siRNA summed score (-2 to +2) = 0; mean protection from cisplatin (shift in death) (%) = 4; inactive.
Depletion of AGER resulted in: two-siRNA summed score (-2 to +2) = 1; mean protection from cisplatin (shift in death) (%) = 12.4; inactive.
Against ZIC4 the deposit lists two-siRNA summed score (-2 to +2) = 0; mean protection from cisplatin (shift in death) (%) = 3.7; inactive.
LOC346085 showed two-siRNA summed score (-2 to +2) = 0; mean protection from cisplatin (shift in death) (%) = -2.6; inactive.
With knock-down of CACNG4, the record shows two-siRNA summed score (-2 to +2) = 0; mean protection from cisplatin (shift in death) (%) = 18.3; inactive.
With knock-down of SLC35G1 the results were two-siRNA summed score (-2 to +2) = 0; mean protection from cisplatin (shift in death) (%) = 8.5; inactive.

Limited to “mean protection from cisplatin (shift in death) (%)”, for 2 of the entries above:
AHCTF1 = -6.6
FREM2 = 23.4
